According to PubChem BioAssay AID2685 (National Center for Advancing Translational Sciences (NCATS), 2010):
The campaign covered roughly 320,000 compounds. About 2,100 (0.66%) were called active. Inconclusive means that the source gave no clear call. Such entries were picked first, then a sample of the others. The call rests on the fitted dose curve; in most records, active means well fitted inhibition curve with a large enough effect in the signal ratio, with a control signal flat (not every such curve was filed as active); inconclusive means small, poorly fitted or top-dose-only effect, or effect the other way, or a change in a side signal; inactive means flat fitted curve, though single readings scatter; the % refers to the signal ratio. Potencies beside an inconclusive call are fits to weak or partial responses and may not hold up.

Assay: qHTS Assay for Lipid Storage Modulators in Drosophila S3 Cells
Settings: BODIPY lipid droplet fluorescence, 18-24 h, cells fed with added oleic acid; lipid storage change, negative = inhibition: at 46.1 µM (top of the series) unless noted
Method in brief: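 Drosophila S3 cells got compounds at several concentrations plus oleic acid (400 uM solution). Laser-scanning cytometry with 488 nm excitation read lipid droplets at 500-530 nm and cells at 575-640 nm. Percent activity was relative to 20 uM Triacsin C.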
On the % scale 0 is the no-effect control and ±100 the full control effect; potency means the concentration at half of the fitted maximal effect.

SMILES | Potency | lipid storage change, negative = inhibition
c1ccc(COc2ccc(OCCCNC3CCCC3)cc2)cc1 | inconclusive: 3.26 µM [falling, partial curve] | –
CC(=O)c1c(C)[nH]c(C(=O)Nc2cc(C)cc(C)c2)c1C | – | inconclusive: -10.9%
COc1ccc(OC)c(NC(=O)COC(=O)CCC2CCCC2)c1 | – | inconclusive: 15.2%
CCc1ccc(/C=C2\SC(=S)N(CCC(=O)NCCCN3CCOCC3)C2=O)cc1 | – | inconclusive: 10.2%
CNC(=S)N(CCc1c(C)[nH]c2ccc(OC)cc12)Cc1cc(OC)c(OC)c(OC)c1 | inconclusive: 1.46 µM [activator, partial curve] | –
CC1=C[C@H](C)[C@H](c2c(F)cccc2Cl)CC1=O | inconclusive: 23.1 µM [activator, partial curve, poor fit] | –
O=C(CSc1nc2ccc(Cl)cc2[nH]1)c1ccc2c(c1)OCO2 | – | inconclusive: 35.4%
Cc1ccc2nc(NC(=O)CSc3nc4c(c(=O)n3C)SC(C)C4)sc2c1 (configuration not stated) | inconclusive: 29.1 µM [cytotoxic, single point] | –
CC(NS(=O)(=O)c1ccc(Br)s1)c1ccccc1 (configuration not stated) | inconclusive: 32.6 µM [falling, single point] | –
CCc1cccc(NC(=O)CCNS(=O)(=O)c2cccc3nonc23)c1 | – | inconclusive: 8.74%
CCCCCCC1(C)NC(=O)N(C(C)C(=O)Nc2ccc(N3CCOCC3)cc2)C1=O (configuration not stated) | – | inconclusive: 7.6%
Cc1ccc(NC(=O)CNC(=O)c2cccc(Cl)c2)nc1 | – | inconclusive: 39.4%
CCN(C(=O)CN1C(=O)NC(CCSC)C1=O)C1CCS(=O)(=O)C1 (configuration not stated) | – | inconclusive: -7.19%
CCOC(=O)c1ccc(N=CC2=C(O)CC(C)(C)CC2=O)cc1 | – | inconclusive: -35.1% [at 0.0737 µM]
CCCC(=O)Nc1ccc(C=C(C(C)=O)C(C)=O)cc1 | – | inconclusive: -24.8%
O=C(NCCO)c1cc2ccccc2cc1O | – | inconclusive: -25.1%
CC1CCC(C(=O)NC(C(=O)N2CCN(c3ccccn3)CC2)C(C)C)CC1 (configuration not stated) | – | inconclusive: -46.3%
FC(F)(F)c1cc(C(F)(F)F)c2ccc(N3CCN(c4ncccn4)CC3)nc2n1 | – | inactive
O=C(NNC(=S)NC(=O)c1ccccc1Cl)c1cccc([N+](=O)[O-])c1 | – | inconclusive: 13.2%
Cc1c(C)n(Cc2ccc(Cl)cc2)c2ccc(C(=O)NCCN3CCOCC3)cc12 | inconclusive: 6.51 µM [activator, partial curve] | –
Cc1ccc(S(=O)(=O)NCc2ccccc2)cc1C(=O)NC1CCCCC1 | – | inconclusive: -29.2%
Cc1ncc(CO)c(/C=N/Nc2ccc(C(F)(F)F)cn2)c1O | – | inconclusive: -100%
Cc1ccc(C(=O)Nc2cccc3ncccc23)cc1[N+](=O)[O-] | – | inconclusive: 153%
Cc1cccc(NC(=S)N2CCC(C(N)=O)(N3CCCCC3)CC2)c1C | – | inconclusive: 19.2%
CCc1ccccc1NNC(=O)c1cc(C)on1 | – | inconclusive: 11.9%
COCc1c(C(=O)N/N=C/c2c[nH]c3ccccc23)nnn1-c1nonc1N | active: 0.164 µM | –

SMILES | Potency | lipid storage change, negative = inhibition
COc1ccc(NC(=O)CSc2nnc(NC(C)=O)s2)c([N+](=O)[O-])c1 | inconclusive: 29.1 µM [cytotoxic, single point] | –
NS(=O)(=O)c1cccc(NC(=O)CSc2n[nH]c(-c3cccs3)n2)c1 | – | inconclusive: 1.02%
CN1CCS/C1=C/C=C1\SC(=S)N(CC(=O)O)C1=O | – | inactive
O=S(=O)(NCc1ccccc1)[C@@H]1CC2C=CC1C2 (some centres not stated) | inconclusive: 6.51 µM [activator, partial curve] | –
COc1ccc(/C=C\C(=O)NCC(=O)N/N=C/c2cccc(OC)c2O)cc1 | – | inconclusive: -85.6%
CC(=O)Nc1ccc(S(=O)(=O)Nc2ccc(N3CCOCC3)cc2)cc1 | – | inconclusive: 18.7%
CCCOc1cc(C)nc(-c2ccccc2O)n1 | – | inconclusive: -31.8%
Cc1ccc(Cn2nnc3c(=O)[nH]c(C4CCCN(S(=O)(=O)c5ccccc5F)C4)nc32)cc1 (configuration not stated) | inconclusive: 23.1 µM [rising, partial curve] | –
Cc1cccc(C)c1NC(=O)CN(C)C(=O)c1cc(S(=O)(=O)N2CCOCC2)ccc1N1CCCC1 | – | inconclusive: -67.1%
Nc1ccc(O)c2c(=O)cc(-c3ccccc3Cl)oc12 | – | inconclusive: -8.15%
CCn1c(-c2cc(-c3ccccc3)sc2N)n[nH]c1=S | – | inconclusive: -13.5%
COc1ccc(-c2c(C#Cc3ccsc3)c3cc(-c4ccc5c(c4)OCO5)ccc3n2C)cc1 | inconclusive: 0.461 µM [activator, partial curve] | –
Cc1cc(Oc2ccccc2)nc(SCC(=O)Nc2ccc(Cl)c(Cl)c2)n1 | – | inconclusive: 10%
Cc1cccnc1NC(=O)c1c(O)c2cccc3c2n(c1=O)CCC3 | – | inconclusive: 21.4%
C[C@@H]1C=CC(=O)O[C@@H]1c1ccc(C(F)(F)F)cc1 | – | inactive
Cc1cc(NC(=O)C2CCCN(S(=O)(=O)c3c(C)noc3C)C2)no1 (configuration not stated) | – | inconclusive: -5.18%
CCOC(=O)N1CCN(CC(=O)Nc2ccc([N+](=O)[O-])cc2C(=O)Nc2ccccc2F)CC1 | – | inconclusive: 11.2%
COc1ccccc1CNC(=O)CCCC(=O)n1ncc2cc(C)ccc21 | – | inconclusive: 21.5%
C=CCC(Nc1ccccc1)c1cccc(OC)c1OC (configuration not stated) | – | inconclusive: 19.3%
O=C(Nc1ccc(Br)cc1Br)C1CC(=O)N(Cc2ccccc2)C1 (configuration not stated) | – | inconclusive: 11.1%
COc1ccc(NC(=O)[C@@]2(CC(=O)O)CC(/C=C/c3ccccc3)=NO2)cc1 | – | inconclusive: -48.4%
CCOC(=O)c1c(N)sc2c(NC(C)=O)cccc12 | – | inconclusive: 9.29%
CCCOC1CCCN(Cc2nc(-c3cnccn3)no2)C1 (configuration not stated) | – | inconclusive: 4.51%
O=C1CN(C(=O)c2c(F)cccc2F)C(c2ccc(F)cc2)c2cc(F)ccc2N1 (configuration not stated) | – | inconclusive: 5.37%
O=C1C=C(NCCN2CCOCC2)C(=O)c2cnccc21 | active: 11.6 µM | –
COc1ccc2oc(-c3ccc(NC(=O)c4ccc(N5CCOCC5)c([N+](=O)[O-])c4)cc3)nc2c1 | – | inconclusive: -20.9%

Fetched by structure from the list above, 5 records:
SMILES | Potency | lipid storage change, negative = inhibition
Cc1ccc(Cn2nnc3c(=O)[nH]c(C4CCCN(S(=O)(=O)c5ccccc5F)C4)nc32)cc1 (configuration not stated) | inconclusive: 23.1 µM [rising, partial curve] | –
NS(=O)(=O)c1cccc(NC(=O)CSc2n[nH]c(-c3cccs3)n2)c1 | – | inconclusive: 1.02%
CCCOc1cc(C)nc(-c2ccccc2O)n1 | – | inconclusive: -31.8%
COc1ccc(NC(=O)CSc2nnc(NC(C)=O)s2)c([N+](=O)[O-])c1 | inconclusive: 29.1 µM [cytotoxic, single point] | –
CN1CCS/C1=C/C=C1\SC(=S)N(CC(=O)O)C1=O | – | inactive

Carrying on:

SMILES | Potency | lipid storage change, negative = inhibition
CC(C)(O)C(=O)NNC(=S)NCc1ccco1 | – | inconclusive: 16.9%
COc1ccc2cc(C(=O)C3CCCN(C(=O)C4=NN(C)C(=O)CC4)C3)ccc2c1 (configuration not stated) | inconclusive: 32.6 µM [activator, single point] | –
Cc1ccccc1C(=O)N1CCN(S(=O)(=O)c2ccccc2)CC1 | inconclusive: 29.1 µM [activator, single point] | –
O=C(O)c1cccc(N/N=C(\N=Nc2ccccc2)c2ccccc2)c1 | – | inconclusive: 7.55%
CCOC(=O)C1CCCN(C(=O)Cn2cnc3c2c(=O)n(C)c(=O)n3C)C1 (configuration not stated) | – | inconclusive: 8.84%
O=C1c2cccc3cccc(c23)C(=O)N1c1nccs1 | – | inconclusive: 4.84%
CCCN(CCC)CCCNC(=O)c1cc2c(-c3ccc(OC)c(OC)c3)nn(C)c2s1 | inconclusive: 16.4 µM [falling, single point] | –
Cc1ccc(-n2nc(C)c3c(C)c(CCC(=O)NCc4ccccc4)c(C)nc32)cc1 | – | inconclusive: -19.1%
COc1ccc(CCNC(=O)CCc2ccsc2)cc1OC | inconclusive: 20.6 µM [activator, single point] | –
COc1ccc(-c2cc(C(=O)OC(C)C(=O)Nc3c(C)n(C)n(-c4ccccc4)c3=O)c3ccccc3n2)cc1 (configuration not stated) | – | inconclusive: 2.57%
CC(C)CN(C1CCS(=O)(=O)C1)S(=O)(=O)c1ccc(C(C)C)cc1 (configuration not stated) | inconclusive: 20.6 µM [falling, single point] | –
CCc1cccc(C)c1NC(=O)CCOc1ccccc1 | – | inconclusive: 11%
O=C(COC(=O)Cn1[nH]c(=O)c2ccccc2c1=O)Nc1c(Cl)cccc1C(F)(F)F | inconclusive: 5.8 µM [activator, single point] | –
Cc1cc(C)c(C)c(S(=O)(=O)N2CCN(C(=O)CCc3nc4ccccc4c(=O)[nH]3)CC2)c1C | – | inconclusive: -20.5%
C/C(=N\NC(=O)c1cc(-c2cccc([N+](=O)[O-])c2)n[nH]1)c1ccccc1O | – | inconclusive: 3.07%
Cc1cccc(Nc2nnc(SCC(=O)NC3CCCc4ccccc43)s2)c1C (configuration not stated) | inconclusive: 4.61 µM [falling, partial curve] | –
O=C(CSc1ncnc2c1sc1ccccc12)Nc1ccc(Br)cc1 | inconclusive: 1.03 µM [activator, single point] | –
COC1c2ccccc2C(=O)N1Cc1ccc(F)cc1 (configuration not stated) | – | inconclusive: 16.8%
Cc1ccc(C(=O)OC(C)C(=O)NCc2ccc3c(c2)OCO3)cc1S(=O)(=O)N1CCOCC1 (configuration not stated) | – | inconclusive: 19.3%
CCC(c1nnc(SCC(=O)Nc2cc(C)on2)o1)N(C)C (configuration not stated) | – | inconclusive: 4.06%
CC1(C)CC(NC(=O)c2ccccn2)CC(C)(C)N1O | inconclusive: 1.16 µM [activator, single point] | –
CC(C)Cn1c(-c2ccccc2)nc(=S)c2c1CCCC2 | inconclusive: 29.1 µM [rising, single point] | –
O=C(CNc1cccc(S(=O)(=O)N2CCOCC2)c1)Nc1ccc(C(F)(F)F)cc1 | – | inconclusive: -78.1%
O=C(c1ccccc1)N(CCN1CCOCC1)C1(C(=O)Nc2ccccc2)CCCCC1 | – | inconclusive: -0.702%
CCNC(=O)CCc1nc(-c2ccc(C(C)(C)C)cc2)no1 | inconclusive: 29.1 µM [cytotoxic, single point] | –
